# Values of other authors as cited in patent US9539259B2, “Compounds and methods of use thereof for treating neurodegenerative disorders” (THE JOHNS HOPKINS UNIVERSITY, priority 2012, dated 2017).
# For at least one compound, name, drawing or mass did not settle the structure.
# Columns and labels:
# [1] = test system: MKK4/7; conditions: published kinase inhibitor profiling; cited from earlier work
# [2] = test system: kinases; conditions: at neuroprotective concentrations; cited from earlier work
compound,measurement,setting,value
CCN(CC)CCNC(=O)c1c(C)[nH]c(/C=C2\C(=O)Nc3ccc(F)cc32)c1C [sunitinib],affinity for MKK4/7,[1],does not have significant affinity
same,number of kinases inhibited,[2],~200 kinases
